This test concerns the target BK B2-Receptor in h-TM cells (Homo sapiens, UniProt P30411). The test can be described thus: Antagonism of FR-190997-induced [Ca2+]i mobilization in h-TM cells. Type of test: cell-based. The settings on record: read-out: Antagonist Potency (Ki), FR-190997 as the agonist.

Amino acid sequences for entries named in this document (tags omitted).
UniProt P30411, whole entry: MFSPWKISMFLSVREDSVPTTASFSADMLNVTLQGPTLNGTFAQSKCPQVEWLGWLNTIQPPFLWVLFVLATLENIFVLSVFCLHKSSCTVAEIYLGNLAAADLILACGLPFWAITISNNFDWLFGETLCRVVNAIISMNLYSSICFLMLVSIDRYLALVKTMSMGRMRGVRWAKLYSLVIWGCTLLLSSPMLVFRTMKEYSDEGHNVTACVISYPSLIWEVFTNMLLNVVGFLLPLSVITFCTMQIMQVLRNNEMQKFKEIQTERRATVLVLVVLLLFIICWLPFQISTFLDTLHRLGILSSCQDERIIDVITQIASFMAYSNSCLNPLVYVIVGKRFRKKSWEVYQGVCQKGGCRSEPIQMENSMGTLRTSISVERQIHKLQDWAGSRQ

The structures appear in SMILES notation. Certain results were filed several times, with different values. The list is limited to them. The source may hold further records. The records of an entry seem to repeat one measurement on other runs, samples or individuals.

By Ki is commonly meant the equilibrium dissociation constant of an inhibitor or competing ligand from its target.

For the molecule `Cc1nc2c(OCc3c(Cl)ccc(N(C)C(=O)CNC(=O)/C=C/c4ccc(C(=O)N(C)C)cc4)c3Cl)cccn2c1Br` [FR-167344], the inhibition constant Ki was 68 nM and 349 nM.

With `CC(=O)Nc1ccc(/C=C/C(=O)NCC(=O)N(C)c2ccc(Cl)c(COc3cccc4ccc(C)nc34)c2Cl)cn1` [FR-173657], the Ki is 110 nM and 317 nM.

These data come from patent US8173668B1, “Use of non-peptidic bradykinin receptor agonists to treat ocular hypertension and glaucoma” (Alcon Research, Ltd., priority 2007, dated 2012).
